Drawing on article PMC9585911, this text covers binding for 1 molecule.

This assay concerns the target Strep-tagged Nsp8 of SARS-CoV-2 (SARS-CoV-2) (UniProt P0DTD1). The experiment in a line: affinity purification with mass spectrometry.

These are yes or no findings as the source states them, for the method shown. In cells and extracts the contact can be indirect. Here binding means that the protein was enriched with, or labelled near, the bait; the list need not be complete.

B1: EXOSC10 (protein, UniProt Q01780 1-885)
chain: MAPPSTREPRVLSATSATKSDGEMVLPGFPDADSFVKFALGSVVAVTKASGGLPQFGDEYDFYRSFPGFQAFCETQGDRLLQCMSRVMQYHGCRSNIKDRSKVTELEDKFDLLVDANDVILERVGILLDEASGVNKNQQPVLPAGLQVPKTVVSSWNRKAAEYGKKAKSETFRLLHAKNIIRPQLKFREKIDNSNTPFLPKIFIKPNAQKPLPQALSKERRERPQDRPEDLDVPPALADFIHQQRTQQVEQDMFAHPYQYELNHFTPADAVLQKPQPQLYRPIEETPCHFISSLDELVELNEKLLNCQEFAVDLEHHSYRSFLGLTCLMQISTRTEDFIIDTLELRSDMYILNESLTDPAIVKVFHGADSDIEWLQKDFGLYVVNMFDTHQAARLLNLGRHSLDHLLKLYCNVDSNKQYQLADWRIRPLPEEMLSYARDDTHYLLYIYDKMRLEMWERGNGQPVQLQVVWQRSRDICLKKFIKPIFTDESYLELYRKQKKHLNTQQLTAFQLLFAWRDKTARREDESYGYVLPNHMMLKIAEELPKEPQGIIACCNPVPPLVRQQINEMHLLIQQAREMPLLKSEVAAGVKKSGPLPSAERLENVLFGPHDCSHAPPDGYPIIPTSGSVPVQKQASLFPDEKEDNLLGTTCLIATAVITLFNEPSAEDSKKGPLTVAQKKAQNIMESFENPFRMFLPSLGHRAPVSQAAKFDPSTKIYEISNRWKLAQVQVQKDSKEAVKKKAAEQTAAREQAKEACKAAAEQAISVRQQVVLENAAKKRERATSDPRTTEQKQEKKRLKISKKPKDPEPPEKEFTPYDYSQSDFKAFAGNSKSKVSSQFDPNKQTPSGKKCIAAKKIKQSVGNKSMSFPTGKSDRGFRYNWPQR
For the molecule B1, the binding entry is recorded as “binds”.
